# B1: rh-ApoA1 4WF: rh-ApoA1 with each of the four tryptophan residues altered to phenylalanine (protein, UniProt P02647 25-267, looked up, variant W8F W50F W72F W108F)
# Protein sequences, listed by entry. Tags and fused reporters are not part of them. Lines headed by an entry give the natural chain unless they say otherwise; changes in a name come on top.
# UniProt P02647: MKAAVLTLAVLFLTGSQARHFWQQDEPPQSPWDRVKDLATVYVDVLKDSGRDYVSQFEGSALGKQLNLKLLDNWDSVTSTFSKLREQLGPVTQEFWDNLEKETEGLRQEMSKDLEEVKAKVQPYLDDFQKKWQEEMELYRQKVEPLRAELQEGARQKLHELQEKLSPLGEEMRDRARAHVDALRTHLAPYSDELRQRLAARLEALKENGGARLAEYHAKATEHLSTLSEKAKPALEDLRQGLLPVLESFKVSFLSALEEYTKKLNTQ
# Apolipoprotein A-I: DEPPQSPFDRVKDLATVYVDVLKDSGRDYVSQFEGSALGKQLNLKLLDNFDSVTSTFSKLREQLGPVTQEFFDNLEKETEGLRQEMSKDLEEVKAKVQPYLDDFQKKFQEEMELYRQKVEPLRAELQEGARQKLHELQEKLSPLGEEMRDRARAHVDALRTHLAPYSDELRQRLAARLEALKENGGARLAEYHAKATEHLSTLSEKAKPALEDLRQGLLPVLESFKVSFLSALEEYTKKLNTQ
# Test: Detection of ApoA1 cross links by Western blotting after MPO modification
# Conditions: MPO/Cl-/H2O2 oxidation at increasing doses of H2O2
# From the text: FIG. 8 illustrates an immunoblot showing tryptophan to phenylalanine substituted ApoA1 is still susceptible to cross linking by MPO. rh-ApoA1, and rh-ApoA1 4WF were subjected to MPO modification at the following mole ratios of H2O2:ApoA1; 0, 1, 2, 3, 5, and 12.5 (from left to right). ApoA1 cross linking was qualitatively assessed by Western blotting. The migration of molecular weight standards is shown on the left side.
# MPO at a final concentration of 57 nmol/L, prepared as previously described, was added to ApoA1 at 100 μg/mL (3.5 μmol/L) that had been extensively dialyzed against MPO reaction buffer. The reaction was initiated by adding hydrogen peroxide at varying mole ratios to ApoA1 in 4 aliquots at 15-minute intervals at 37° C., and continuing the incubation for 90 minutes, at which time 2 mmol/L L-methionine was added to quench the reaction. For chemical modification of ApoA1, sodium hypochlorite (NaOCI) was added to 100 μg/mL ApoA1 in MPO buffer at varying concentrations in 4 aliquots at 15 minutes intervals at 37° C. After a total incubation time of 60 minutes, 2 mmol/L L-metbionine was added to quench the reaction.
# 250 ng of ApoA1 per lane was denatured in an SDS sample buffer, run on a 10% Tris glycine gel in the presence of SDS, and the protein was transferred to a polyvinylidene fluoride (PVDF) membrane. […]
molecule,measurement,value
B1,migration of predominant cross-linked band in denaturing gel,about 70 kD

# — patent US8536117B2, “Oxidant resistant apolipoprotein A-1 and mimetic peptides” (The Cleveland Clinic Foundation, priority 2007, dated 2013)
